PubChem BioAssay AID1259308 | NCATS | 2017
In all, the deposit lists about 59,000 reagents; below is a part drawn at random. About 1,510 of all reagents (2.6%) count as active. 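Calls use total luciferase alone and ignore viability, so some active siRNAs may act by altering cell number.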 The numbers tell different reagents against one gene apart. Not all columns of the deposit are shown.

Purpose: 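Knock-downs that increase output of a recombinant reporter protein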 (primary screen)
Cells: human HEK293 embryonic kidney cells stably expressing firefly luciferase (HEK-CMV-Luc2-Hygro)
Reagent: single siRNA against human genes, 0.8 pmol siRNA per well
Timing: 72 h
Measured: 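Reporter luminescence and viable-cell signal on separate replicate plates, given as percent of non-targeting control and median/MAD z-scores, plus per-cell luciferase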
Scale: total luciferase, z-score and total luciferase, % of control: higher = more reporter protein produced
Rule for the call: 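An siRNA counts as active if its total luciferase robust z-score exceeds 3; genes with two or more such siRNAs out of three were retested with fresh siRNAs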
Calls: active = raised luciferase; inactive = no rise

target | siRNA no. | total luciferase, z-score | total luciferase, % of control | outcome
FIGN (fidgetin, microtubule severing factor) | 1 | 0.166 | 85.2 | inactive
FIGN (fidgetin, microtubule severing factor) | 2 | -1.97 | 42.7 | inactive
FIGN (fidgetin, microtubule severing factor) | 3 | 0.0649 | 83.2 | inactive
LRATD1 (LRAT domain containing 1) | 1 | 0.382 | 89.5 | inactive
LRATD1 (LRAT domain containing 1) | 2 | -0.0466 | 81 | inactive
LRATD1 (LRAT domain containing 1) | 3 | 1.19 | 106 | inactive
MEIS3 (Meis homeobox 3) | 1 | 1.05 | 103 | inactive
MEIS3 (Meis homeobox 3) | 2 | -0.322 | 75.5 | inactive
MEIS3 (Meis homeobox 3) | 3 | 3.78 | 157 | active
LOC651337 | 1 | -1.71 | 47.9 | inactive
LOC651337 | 2 | 0.517 | 92.2 | inactive
LOC651337 | 3 | 1.45 | 111 | inactive
ENO3 (enolase 3) | 1 | -1.09 | 60.2 | inactive
ENO3 (enolase 3) | 2 | -0.51 | 71.7 | inactive
ENO3 (enolase 3) | 3 | 2.54 | 132 | inactive
ABCD2 (ATP binding cassette subfamily D member 2) | 1 | -0.495 | 72 | inactive
ABCD2 (ATP binding cassette subfamily D member 2) | 2 | 1.16 | 105 | inactive
ABCD2 (ATP binding cassette subfamily D member 2) | 3 | -1.04 | 61.2 | inactive
SKI (SKI proto-oncogene) | 1 | -1.79 | 46.3 | inactive
SKI (SKI proto-oncogene) | 2 | -1.3 | 56.1 | inactive
SKI (SKI proto-oncogene) | 3 | -0.727 | 67.4 | inactive
SLC14A2 | 1 | 0.881 | 99.4 | inactive
SLC14A2 | 2 | -0.313 | 75.7 | inactive
SLC14A2 | 3 | 1.59 | 114 | inactive
RBM34 (RNA binding motif protein 34) | 1 | 0.143 | 84.7 | inactive
RBM34 (RNA binding motif protein 34) | 2 | 0.0317 | 82.5 | inactive
RBM34 (RNA binding motif protein 34) | 3 | -0.491 | 72.1 | inactive
E2F5 (E2F transcription factor 5) | 1 | -0.905 | 63.9 | inactive
E2F5 (E2F transcription factor 5) | 2 | 0.126 | 84.4 | inactive
E2F5 (E2F transcription factor 5) | 3 | 3.28 | 147 | active
STAG1 (STAG1 cohesin complex component) | 1 | -0.0902 | 80.1 | inactive
STAG1 (STAG1 cohesin complex component) | 2 | 0.753 | 96.9 | inactive
STAG1 (STAG1 cohesin complex component) | 3 | -0.0614 | 80.7 | inactive
C22orf42 (chromosome 22 open reading frame 42) | 1 | -1.12 | 59.6 | inactive
C22orf42 (chromosome 22 open reading frame 42) | 2 | 0.0991 | 83.9 | inactive
C22orf42 (chromosome 22 open reading frame 42) | 3 | 1.11 | 104 | inactive
TRAK1 (trafficking kinesin protein 1) | 1 | -0.289 | 76.1 | inactive
TRAK1 (trafficking kinesin protein 1) | 2 | -0.813 | 65.7 | inactive
TRAK1 (trafficking kinesin protein 1) | 3 | -1.02 | 61.5 | inactive

6 consecutive reagents already listed:
target | siRNA no. | total luciferase, z-score | total luciferase, % of control | outcome
FIGN (fidgetin, microtubule severing factor) | 1 | 0.166 | 85.2 | inactive
FIGN (fidgetin, microtubule severing factor) | 2 | -1.97 | 42.7 | inactive
FIGN (fidgetin, microtubule severing factor) | 3 | 0.0649 | 83.2 | inactive
LRATD1 (LRAT domain containing 1) | 1 | 0.382 | 89.5 | inactive
LRATD1 (LRAT domain containing 1) | 2 | -0.0466 | 81 | inactive
LRATD1 (LRAT domain containing 1) | 3 | 1.19 | 106 | inactive
